The values below come from US20190177391A1, “ANGIOPOIETIN-LIKE PROTEIN 8 (ANGPTL8)” (BAYLOR RESEARCH INSTITUTE, priority 2016, published 2019).

This assay concerns the target T1, Paired immunoglobulin-like receptor B (PirB) (mouse) (UniProt P97484).
T1 sequence (looked up): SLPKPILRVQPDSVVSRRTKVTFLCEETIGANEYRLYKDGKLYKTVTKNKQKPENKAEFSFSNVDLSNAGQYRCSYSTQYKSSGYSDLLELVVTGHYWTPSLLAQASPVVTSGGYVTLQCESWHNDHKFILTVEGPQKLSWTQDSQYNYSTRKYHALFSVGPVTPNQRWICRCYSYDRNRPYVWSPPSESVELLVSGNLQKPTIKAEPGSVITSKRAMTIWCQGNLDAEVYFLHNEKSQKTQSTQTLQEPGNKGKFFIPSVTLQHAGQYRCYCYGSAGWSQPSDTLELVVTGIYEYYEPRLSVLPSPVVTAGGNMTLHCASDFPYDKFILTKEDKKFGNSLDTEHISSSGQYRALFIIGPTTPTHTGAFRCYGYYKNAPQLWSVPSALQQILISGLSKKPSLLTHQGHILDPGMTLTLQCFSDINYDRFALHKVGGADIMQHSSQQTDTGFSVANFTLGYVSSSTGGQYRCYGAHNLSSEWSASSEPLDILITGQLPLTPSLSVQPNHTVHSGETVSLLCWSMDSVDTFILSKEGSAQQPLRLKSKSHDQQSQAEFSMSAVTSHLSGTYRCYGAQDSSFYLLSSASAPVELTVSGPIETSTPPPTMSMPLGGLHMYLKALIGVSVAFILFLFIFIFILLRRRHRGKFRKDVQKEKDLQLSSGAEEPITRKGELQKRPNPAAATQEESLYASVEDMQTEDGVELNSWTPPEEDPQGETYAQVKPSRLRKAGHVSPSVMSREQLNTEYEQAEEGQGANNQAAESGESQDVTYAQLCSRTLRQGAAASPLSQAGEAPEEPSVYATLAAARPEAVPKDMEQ
Kind of assay: immunofluorescent staining of cultured mouse HL-1 atrial muscle cells treated with 0.5 uM ADM plus 2 ng of ANGPTL8 peptide; confocal microscopy.

These are yes or no findings as the source states them, for the method shown. Binding calls can cover weak binding; strength is not graded here.

Regarding ANGPTL8 peptide (ligand), the binding entry was “binds”.
